Drawing on PMC5560531, this text covers binding for 1 substance.

Protein sequences, listed by entry. Tags and fused reporters are not part of them.
UniProt Q15003: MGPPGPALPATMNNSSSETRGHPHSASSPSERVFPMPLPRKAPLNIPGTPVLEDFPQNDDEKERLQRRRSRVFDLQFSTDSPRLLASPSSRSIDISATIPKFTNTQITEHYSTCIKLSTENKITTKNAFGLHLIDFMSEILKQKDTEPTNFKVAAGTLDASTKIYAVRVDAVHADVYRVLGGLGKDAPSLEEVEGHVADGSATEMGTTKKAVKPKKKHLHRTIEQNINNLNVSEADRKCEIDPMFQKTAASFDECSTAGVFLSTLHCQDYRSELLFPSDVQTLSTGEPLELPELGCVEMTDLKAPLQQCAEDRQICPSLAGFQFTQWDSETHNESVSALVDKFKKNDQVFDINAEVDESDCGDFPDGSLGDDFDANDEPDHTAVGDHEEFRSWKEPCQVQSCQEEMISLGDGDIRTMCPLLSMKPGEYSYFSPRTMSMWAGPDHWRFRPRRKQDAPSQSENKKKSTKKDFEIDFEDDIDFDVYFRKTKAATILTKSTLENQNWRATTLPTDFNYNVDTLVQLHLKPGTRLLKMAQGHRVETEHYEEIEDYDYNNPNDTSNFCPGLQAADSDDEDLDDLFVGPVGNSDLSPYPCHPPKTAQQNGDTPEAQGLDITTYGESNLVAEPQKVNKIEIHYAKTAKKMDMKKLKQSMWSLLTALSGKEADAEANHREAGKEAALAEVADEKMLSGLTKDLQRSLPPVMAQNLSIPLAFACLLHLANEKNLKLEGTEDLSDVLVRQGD

Test [1] concerns the target T1, Kinesin family member 4 (KIF4), endogenous in mitotic HeLa cells (human (endogenous in HeLa)) (UniProt O95239).
T1 sequence: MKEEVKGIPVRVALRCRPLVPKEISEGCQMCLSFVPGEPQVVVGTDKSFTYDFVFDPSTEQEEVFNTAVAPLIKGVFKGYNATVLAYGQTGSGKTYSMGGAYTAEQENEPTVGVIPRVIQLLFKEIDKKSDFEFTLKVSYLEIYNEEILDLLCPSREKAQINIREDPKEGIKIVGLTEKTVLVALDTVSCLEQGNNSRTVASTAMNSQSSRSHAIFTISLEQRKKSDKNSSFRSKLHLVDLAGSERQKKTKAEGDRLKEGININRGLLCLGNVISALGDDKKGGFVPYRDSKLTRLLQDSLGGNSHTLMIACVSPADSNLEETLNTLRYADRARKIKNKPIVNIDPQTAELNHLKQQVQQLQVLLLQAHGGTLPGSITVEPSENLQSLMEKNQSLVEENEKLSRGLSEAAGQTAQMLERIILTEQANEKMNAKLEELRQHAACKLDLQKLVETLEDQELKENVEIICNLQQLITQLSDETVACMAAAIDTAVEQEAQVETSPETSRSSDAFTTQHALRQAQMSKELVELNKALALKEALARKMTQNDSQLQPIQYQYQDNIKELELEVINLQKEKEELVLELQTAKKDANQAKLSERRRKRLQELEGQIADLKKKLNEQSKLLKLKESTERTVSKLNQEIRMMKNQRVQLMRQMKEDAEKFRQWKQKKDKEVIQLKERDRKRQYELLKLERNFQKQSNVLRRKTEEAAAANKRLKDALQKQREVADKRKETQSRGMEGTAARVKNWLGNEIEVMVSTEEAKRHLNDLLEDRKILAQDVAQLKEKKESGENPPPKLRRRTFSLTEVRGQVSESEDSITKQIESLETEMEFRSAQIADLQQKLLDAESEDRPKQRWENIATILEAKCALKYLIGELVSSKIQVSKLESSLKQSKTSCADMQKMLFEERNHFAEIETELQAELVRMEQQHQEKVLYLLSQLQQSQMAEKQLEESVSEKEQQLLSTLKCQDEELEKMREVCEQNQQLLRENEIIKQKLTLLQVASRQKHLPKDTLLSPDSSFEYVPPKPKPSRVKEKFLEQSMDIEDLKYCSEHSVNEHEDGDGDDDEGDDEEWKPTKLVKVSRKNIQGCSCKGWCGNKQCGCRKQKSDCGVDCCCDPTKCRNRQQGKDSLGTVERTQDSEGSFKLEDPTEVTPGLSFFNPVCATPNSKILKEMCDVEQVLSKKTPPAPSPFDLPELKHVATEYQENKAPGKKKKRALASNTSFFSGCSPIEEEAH
As to the kind of experiment: condition: only in the chromatin-unbound (cytoplasmic) fraction; co-IP; KIF4 immunoprecipitated from the chromatin-unbound (cytoplasmic) protein fraction of nocodazole-arrested mitotic HeLa cells; western blot. A general note: In western blotting, separated proteins are transferred to a membrane and probed.

The target of test [2] is T1, Kinesin family member 4 (KIF4), endogenous in mitotic HeLa cells (human (endogenous in HeLa)). Description: co-IP; KIF4 immunoprecipitated (antibody, protein A sepharose, overnight 4°C, washes with CSK3 buffer, 250 mM NaCl) from the chromatin-bound protein fraction (MNase-released) of nocodazole-arrested mitotic HeLa cells; also from cells treated without or with 4 μM ZM447439; western blot.

No constants are given. Whether binding was seen depends on the method and setting. In cells and extracts the contact can be indirect. Some results given as binding are weak or reduced against the parent protein; the word gives no strength.

As for “hCAP-H, non-SMC subunit of condensin I, endogenous in mitotic HeLa cells (from UniProt Q15003 1-741)”, the binding entry is on record as “no binding” in test [1] and “binds” in test [2].
